Experimental data published in the supplement of paper PMC7877785.
± gives the uncertainty stated by the source. Many entries were measured with a wide error.

Test: self-splicing fitness, log relative to wild type (ln ratio); higher = more splicing; Tetrahymena group I intron in knt gene, E. coli kanamycin selection, DiMSum; sequences stand for … in CUCUCU…GGAGGGAAAAGUUAUCAGGCAUGCACCUGGUAGCUAGUCUUUAAACCAAUAGAUUGCAUCGGUUUAAAAGGCAAGACCGUCAAAUUGCGGGAAAGGGGUCAACAGCCGUUCAGUACCAAGUCUCAGGGGAAACUUUGAGAUGGCCUUGCAAAGGGUAUGGUAAUAAGCUGACGGACAUGGUCCUAACCACGCAGCCAAGUCCUAAGUCAACAGAUCUUCUGUUGAUAUGGAUGCAGUUCACAGACUAAAUGUCGGUCGGGGAAGAUGUAUUCUUCUCAUAAGAUAUAGUCGGACCUCUCCUUAAUGGGAGCUAGCGGAUGAAGUGAUGCAACACUGGAGCCGCUGGGAACUAAUUUGUAUGCGAAAGUAUAUUGAUUAGUUUUGGAGUACUCGUGGUCG
How it was run: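 Six replicate transformations of E. coli BL21(DE3) with a pET-22b(+) library were grown overnight at 37°C or 30°C. The library randomised all eight P1ex-region intron nucleotides, the intron lying in the knt kanamycin-resistance gene, and plates were LB agar with or without 25 μg/mL kanamycin plus 100 μg/mL carbenicillin, 50 μM IPTG and 0.2% rhamnose. Pooled colonies were amplicon-sequenced on an Illumina HiSeq 2500, and fitness is the DiMSum error-weighted combination of wild-type-normalised replicate fold changes, kanamycin versus none.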

ACCGAGCAAUAUUACGAAAC
self-splicing fitness (ln) (30 °C): -3.03 ± 0.53

UCCGAGCAAUAUUACGUCCG
self-splicing fitness (ln) (37 °C): -2.61 ± 0.53

CGUUAGCAAUAUUACGAGGC
self-splicing fitness (ln) (30 °C): -3.26 ± 0.63 | self-splicing fitness (ln) (37 °C): -2.9 ± 0.53

CAUGAGCAAUAUUACGCUAC
self-splicing fitness (ln) (30 °C): -1.04 ± 0.67

GGAAAGCAAUAUUACGUAGU
self-splicing fitness (ln) (30 °C): -2.97 ± 0.11 | self-splicing fitness (ln) (37 °C): -1.23 ± 0.088

AAAGAGCAAUAUUACGCCUC
self-splicing fitness (ln) (37 °C): -0.9 ± 0.53

AUAGAGCAAUAUUACGAGAA
self-splicing fitness (ln) (30 °C): -4.45 ± 0.59

ACGGAGCAAUAUUACGAGUG
self-splicing fitness (ln) (30 °C): -4.78 ± 0.52

CCGGAGCAAUAUUACGAGAA
self-splicing fitness (ln) (30 °C): -2.09 ± 1.4 | self-splicing fitness (ln) (37 °C): -2.18 ± 0.67

GGAUAGCAAUAUUACGGAUA
self-splicing fitness (ln) (30 °C): -2.62 ± 0.56

GGGAAGCAAUAUUACGCUCC
self-splicing fitness (ln) (30 °C): -3.42 ± 0.77 | self-splicing fitness (ln) (37 °C): -2.39 ± 1.1

UUAGAGCAAUAUUACGUGGC
self-splicing fitness (ln) (30 °C): -3.43 ± 0.73 | self-splicing fitness (ln) (37 °C): -2.31 ± 0.63

UACGAGCAAUAUUACGACCG
self-splicing fitness (ln) (37 °C): -1.78 ± 1.2

CGUAAGCAAUAUUACGUUAC
self-splicing fitness (ln) (30 °C): -3.56 ± 0.26 | self-splicing fitness (ln) (37 °C): -2.03 ± 0.28

AGUCAGCAAUAUUACGGAGA
self-splicing fitness (ln) (30 °C): -4.41 ± 0.51 | self-splicing fitness (ln) (37 °C): -1.53 ± 0.38

UUCGAGCAAUAUUACGUCGC
self-splicing fitness (ln) (30 °C): -2.09 ± 0.21 | self-splicing fitness (ln) (37 °C): -3.51 ± 0.6

CCUGAGCAAUAUUACGAAUU
self-splicing fitness (ln) (30 °C): -2.96 ± 0.2 | self-splicing fitness (ln) (37 °C): -2.15 ± 0.31

UGAGAGCAAUAUUACGAGAA
self-splicing fitness (ln) (30 °C): -2.44 ± 1.1

GAUCAGCAAUAUUACGGCCA
self-splicing fitness (ln) (30 °C): 1.25 ± 1.1 | self-splicing fitness (ln) (37 °C): 0.685 ± 0.59

CGGGAGCAAUAUUACGACCA
self-splicing fitness (ln) (37 °C): -1.48 ± 0.84

GAUGAGCAAUAUUACGCCGU
self-splicing fitness (ln) (30 °C): -3.56 ± 0.64

UUCUAGCAAUAUUACGGCUA
self-splicing fitness (ln) (30 °C): -3.38 ± 0.63 | self-splicing fitness (ln) (37 °C): -3.86 ± 1

UGCGAGCAAUAUUACGUUCG
self-splicing fitness (ln) (30 °C): -3.12 ± 0.61

UCGAAGCAAUAUUACGGCUC
self-splicing fitness (ln) (30 °C): -2.77 ± 0.56 | self-splicing fitness (ln) (37 °C): -1.93 ± 0.81

CCGGAGCAAUAUUACGCACA
self-splicing fitness (ln) (37 °C): -2.66 ± 0.76

AUAGAGCAAUAUUACGCAAC
self-splicing fitness (ln) (30 °C): -3.59 ± 0.77

GUAUAGCAAUAUUACGAAAC
self-splicing fitness (ln) (30 °C): -2.21 ± 0.79

GUCAAGCAAUAUUACGCUGG
self-splicing fitness (ln) (30 °C): -4.08 ± 0.28 | self-splicing fitness (ln) (37 °C): -3.72 ± 0.29

GUGGAGCAAUAUUACGCGGA
self-splicing fitness (ln) (30 °C): -2.95 ± 0.52

CCUGAGCAAUAUUACGAUCU
self-splicing fitness (ln) (37 °C): -2.86 ± 0.61

UAAUAGCAAUAUUACGGACC
self-splicing fitness (ln) (30 °C): -3.27 ± 0.61

AUGGAGCAAUAUUACGAGCA
self-splicing fitness (ln) (30 °C): -2.33 ± 0.46 | self-splicing fitness (ln) (37 °C): -1.17 ± 0.49

GAUGAGCAAUAUUACGCUGC
self-splicing fitness (ln) (30 °C): -3.88 ± 1.1

AGCAAGCAAUAUUACGCAGA
self-splicing fitness (ln) (30 °C): -2.73 ± 0.22 | self-splicing fitness (ln) (37 °C): -2.05 ± 0.18

UUUAAGCAAUAUUACGCCAC
self-splicing fitness (ln) (37 °C): -0.687 ± 0.87

AGCCAGCAAUAUUACGAAAA
self-splicing fitness (ln) (30 °C): -3.76 ± 0.52

CAGGAGCAAUAUUACGUACU
self-splicing fitness (ln) (30 °C): -3.37 ± 0.52

CAGAAGCAAUAUUACGCCAA
self-splicing fitness (ln) (30 °C): -3.35 ± 0.38 | self-splicing fitness (ln) (37 °C): -3.13 ± 0.61

AUUCAGCAAUAUUACGUGGU
self-splicing fitness (ln) (30 °C): -3 ± 0.12 | self-splicing fitness (ln) (37 °C): -0.786 ± 0.099

GGGGAGCAAUAUUACGAGUU
self-splicing fitness (ln) (37 °C): -3.27 ± 0.6

GCCGAGCAAUAUUACGCGCC
self-splicing fitness (ln) (37 °C): -1.17 ± 0.61

AUGUAGCAAUAUUACGCGGA
self-splicing fitness (ln) (30 °C): -2.41 ± 0.3 | self-splicing fitness (ln) (37 °C): -1.09 ± 0.2

CGAGAGCAAUAUUACGUUGA
self-splicing fitness (ln) (37 °C): -1.68 ± 0.73

CGGCAGCAAUAUUACGAAAC
self-splicing fitness (ln) (30 °C): -3.19 ± 0.33 | self-splicing fitness (ln) (37 °C): -2.93 ± 0.25

UUGCAGCAAUAUUACGCUCG
self-splicing fitness (ln) (30 °C): -2.83 ± 0.62 | self-splicing fitness (ln) (37 °C): -2.06 ± 0.66

GAUAAGCAAUAUUACGUAUU
self-splicing fitness (ln) (30 °C): -4.03 ± 0.37 | self-splicing fitness (ln) (37 °C): -1.78 ± 0.21

UCAGAGCAAUAUUACGAUAU
self-splicing fitness (ln) (30 °C): -3.12 ± 1.1

CUAAAGCAAUAUUACGCCUA
self-splicing fitness (ln) (37 °C): -1.9 ± 0.57

GUCGAGCAAUAUUACGACCU
self-splicing fitness (ln) (30 °C): -3.72 ± 1

UGGUAGCAAUAUUACGAGUC
self-splicing fitness (ln) (30 °C): -4.2 ± 1

AGUUAGCAAUAUUACGAAAC
self-splicing fitness (ln) (30 °C): -1.93 ± 0.82

UCGGAGCAAUAUUACGGUUU
self-splicing fitness (ln) (30 °C): -4.29 ± 1

CGCGAGCAAUAUUACGGGGC
self-splicing fitness (ln) (37 °C): -2.09 ± 0.52

GAACAGCAAUAUUACGCUGC
self-splicing fitness (ln) (30 °C): -4.48 ± 0.52

GCCUAGCAAUAUUACGAGAA
self-splicing fitness (ln) (30 °C): -2.03 ± 0.67

CCCUAGCAAUAUUACGAAAC
self-splicing fitness (ln) (30 °C): -3.7 ± 1.1 | self-splicing fitness (ln) (37 °C): -2.54 ± 0.76

GGUAAGCAAUAUUACGCCUC
self-splicing fitness (ln) (30 °C): 0.352 ± 0.54 | self-splicing fitness (ln) (37 °C): -2.47 ± 1.1

UUGGAGCAAUAUUACGGAAG
self-splicing fitness (ln) (37 °C): -2.84 ± 0.53

GGUAAGCAAUAUUACGCCAC
self-splicing fitness (ln) (30 °C): -1.43 ± 0.51

CCUGAGCAAUAUUACGACCC
self-splicing fitness (ln) (37 °C): -2.08 ± 1.1

AAGUAGCAAUAUUACGCUCC
self-splicing fitness (ln) (30 °C): 0.062 ± 1.1 | self-splicing fitness (ln) (37 °C): 0.136 ± 0.58
